Measurements taken from PMC8909696.
No constants are given. Whether binding was seen depends on the method and setting. Binding seen in cells or lysates may run through a third protein. Some entries that bind do so weakly or less than the wild type.

The chains behind the UniProt entries cited, without tags or fusion partners.
UniProt P50637: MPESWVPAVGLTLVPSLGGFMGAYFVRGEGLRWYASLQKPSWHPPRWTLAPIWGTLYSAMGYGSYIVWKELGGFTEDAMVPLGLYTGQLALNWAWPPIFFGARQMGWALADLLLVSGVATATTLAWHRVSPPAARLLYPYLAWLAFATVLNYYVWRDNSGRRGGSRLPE

Columns and labels:
[1] = biological target: 18-kDa translocator protein (TSPO) (mouse (endogenous in peritoneal macrophages)) (UniProt P50637); assay: condition: only steady state, cells without LPS plus ATP; co-IP; endogenous proteins of mouse peritoneal macrophages at steady state (no LPS plus ATP); NP-40 IP lysis buffer, primary antibodies 10 h at 4 °C, Protein G Dynabeads, SDS-PAGE
[2] = biological target: 18-kDa translocator protein (TSPO) (mouse (endogenous in peritoneal macrophages)) (UniProt P50637); assay: co-IP; endogenous proteins of mouse peritoneal macrophages after LPS plus ATP (pyroptosis induction); NP-40 IP lysis buffer, primary antibodies 10 h at 4 °C, Protein G Dynabeads, SDS-PAGE
[3] = biological target: 18-kDa translocator protein (TSPO) (mouse (endogenous in peritoneal macrophages)) (UniProt P50637); assay: co-IP; endogenous proteins of mouse peritoneal macrophages at steady state (no LPS plus ATP); NP-40 IP lysis buffer, primary antibodies 10 h at 4 °C, Protein G Dynabeads, SDS-PAGE

- binding [1]: no binding
- binding [2]: binds
- binding [3]: binds weakly
B1: GSDMD (protein, UniProt Q9D8T2 1-487)
chain: MPSAFEKVVKNVIKEVSGSRGDLIPVDSLRNSTSFRPYCLLNRKFSSSRFWKPRYSCVNLSIKDILEPSAPEPEPECFGSFKVSDVVDGNIQGRVMLSGMGEGKISGGAAVSDSSSASMNVCILRVTQKTWETMQHERHLQQPENKILQQLRSRGDDLFVVTEVLQTKEEVQITEVHSQEGSGQFTLPGALCLKGEGKGHQSRKKMVTIPAGSILAFRVAQLLIGSKWDILLVSDEKQRTFEPSSGDRKAVGQRHHGLNVLAALCSIGKQLSLLSDGIDEEELIEAADFQGLYAEVKACSSELESLEMELRQQILVNIGKILQDQPSMEALEASLGQGLCSGGQVEPLDGPAGCILECLVLDSGELVPELAAPIFYLLGALAVLSETQQQLLAKALETTVLSKQLELVKHVLEQSTPWQEQSSVSLPTVLLGDCWDEKNPTWVLLEECGLRLQVESPQVHWEPTSLIPTSALYASLFLLSSLGQKPC
